42 sequences from PMC7819943, “Rice protein-binding microarrays: a tool to detect cis-acting elements near promoter regions in rice” can be followed below.

Sequences of proteins named here, by UniProt entry; tags and fusion partners are left off.
UniProt Q0JBA9, entry or part of it: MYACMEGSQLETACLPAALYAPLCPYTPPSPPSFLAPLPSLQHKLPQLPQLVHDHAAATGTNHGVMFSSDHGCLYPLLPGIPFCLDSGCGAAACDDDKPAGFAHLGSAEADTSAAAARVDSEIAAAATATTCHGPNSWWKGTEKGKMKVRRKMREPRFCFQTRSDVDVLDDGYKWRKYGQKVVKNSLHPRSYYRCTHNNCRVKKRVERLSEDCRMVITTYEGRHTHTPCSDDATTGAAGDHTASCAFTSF

The list shows a part of the results.

The test has as its target OsWRKY34 (Oryza sativa, UniProt Q0JBA9 1-250). Description: protein-binding microarray (RPBM); PBS, 2% BSA, 51.3 ng/ul salmon testes DNA, 50 uM zinc acetate, 200 nM TF, 25 C, 1 h; high values mean tight binding. Conditions: protein: recombinant; tags: N-terminal polyhistidine and DsRed monomer fusion (pET32a); label: CyDye5-dUTP incorporated in the synthesized complementary strand; 3' TTTTT single-stranded linker to array surface; dsDNA, one strand shown. The essentials:
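An Axon 4000B scanner gave the binding signal as per-feature fluorescence intensity in arbitrary units. This followed washing of a custom Agilent array that had been incubated for 1 h at 25 °C with 200 nM protein in PBS, 2% BSA, salmon testes DNA and 50 µM zinc acetate. The proteins were transcription factors fused at the N-terminus to polyhistidine and DsRed, expressed in E. coli BL21-CodonPlus and purified on Ni–NTA.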
Regarding “CTTTGTCATCGCACAGTCCACATAACTTATCCCCACGCAACGGAGTCACCTAGTGCAG”, the binding signal is 8870 fluorescence intensity (a.u.). On to “TATGTCTTTGATATGTCCTTCTCGCTTTTCTTCCTTTTCCCGGAGTCACCTAGTGCAG”, for which the binding signal was 9390 fluorescence intensity (a.u.). For “CCCCATGCTGTTTTCTCAACCTCCTACTGTATTTCTCTACCGGAGTCACCTAGTGCAG”, the binding signal is 14400 fluorescence intensity (a.u.). In the case of “GTTGTCTTTCGTTTTTCCGCTGCATTTATGTAAGACTTTTCGGAGTCACCTAGTGCAG”, the binding signal was 8180 fluorescence intensity (a.u.). For “CCGGCGCTCGCCTCGATCTCCGCCGCCTCGTCCCACCATGCGGAGTCACCTAGTGCAG”, the binding signal was 10300 fluorescence intensity (a.u.). Next, “CGCCGCCTGTCCCTCTCCCCGCCGCCTGGCCGCCGCTCGCCGGAGTCACCTAGTGCAG”: 9550 fluorescence intensity (a.u.). Regarding “ACCATGGGCGCACACGCTTCACTGCGTCTTTTTCCATCCACGGAGTCACCTAGTGCAG”, the binding signal was 8320 fluorescence intensity (a.u.). Next, “GTCAACGAGACATCGACTCTCCTCTGTTTTTTTTTTTTTTCGGAGTCACCTAGTGCAG”: 9030 fluorescence intensity (a.u.); “TATCAGATCACCCGGCTAGCTCGGCTCTCTTCTTCTTCAACGGAGTCACCTAGTGCAG”: 9490 fluorescence intensity (a.u.); “TGGCTGAAGGGTGTTTTGTGCAAGTTTTGGCGGGCATATCCGGAGTCACCTAGTGCAG”: 8410 fluorescence intensity (a.u.).

With “CCTCCTACTCTCCTCCATTCCTTCACTGCCTTCACTTCCCCGGAGTCACCTAGTGCAG”, the binding signal is 8610 fluorescence intensity (a.u.). Turning to “CGTCGAGGGATCTAGTTTGCACTGGTTTTGTAAGTTGGGGCGGAGTCACCTAGTGCAG”, the binding signal was 9180 fluorescence intensity (a.u.).

As for “CATAGCGTTCTTTTTTTTCTTTTCTCGATCTCTCCCGTTGCGGAGTCACCTAGTGCAG”, the binding signal is 11300 fluorescence intensity (a.u.).

With “AAACCACCAGCAGTAGCAGCCATCCATTAATACGCCTTGACGGAGTCACCTAGTGCAG”, the binding signal was 8400 fluorescence intensity (a.u.). With “CTAGGGGCACTCATTAATCGTAGTATTATTTTATCCTTTTCGGAGTCACCTAGTGCAG”, the binding signal was 8490 fluorescence intensity (a.u.). In the case of “ATGCTTTTTTTATTCCTTCCTATGAGGTTGTAGTGCTATTCGGAGTCACCTAGTGCAG”, the binding signal was 10200 fluorescence intensity (a.u.). As for “CCGTGGACCAGCGCCAACCCTCGCCACCGCACGTCGCCGGCGGAGTCACCTAGTGCAG”, the binding signal was 9250 fluorescence intensity (a.u.).

Turning to “TTCCTTCTTCCCTCTCTCACATCTTGTTGATTCCTTGCAACGGAGTCACCTAGTGCAG”, the binding signal is 8740 fluorescence intensity (a.u.).

With “TCCATCACTCTACCTGCTACTCCATCCGTTTTAGGTTTCACGGAGTCACCTAGTGCAG”, the binding signal is 8810 fluorescence intensity (a.u.). On to “GTTCGTATCGTAGCTACACATCTCCACCACTCGTTGACCACGGAGTCACCTAGTGCAG”, for which the binding signal was 11500 fluorescence intensity (a.u.).

As for “AGGTTTCTTTTCTTGATTATACTTGGGCTGTGTAGATATTCGGAGTCACCTAGTGCAG”, the binding signal was 8630 fluorescence intensity (a.u.).

In the case of “CAGCCCTGCTAACCATGTATTTTTCTCCTACTCCTCTATTCGGAGTCACCTAGTGCAG”, the binding signal was 9500 fluorescence intensity (a.u.). For “TCCTTTCTTCCAATCTGATTCAGTCCGATCTATTTCAATTCGGAGTCACCTAGTGCAG”, the binding signal was 8090 fluorescence intensity (a.u.).

For the sequence “GATTAGTAAAACATACCACTTCAATTCCTATATTTTTTCTCGGAGTCACCTAGTGCAG”, the binding signal was 10000 fluorescence intensity (a.u.). Then “AGTCGTTTCGTCTCGTCTCGTCTCCTCCGTTTGAGATTCCCGGAGTCACCTAGTGCAG”, with 8420 fluorescence intensity (a.u.); and “ACCGTATTTTACGTTTTGTTCTGTATCTAATTCGGTTTGTCGGAGTCACCTAGTGCAG”, with 10700 fluorescence intensity (a.u.); and “GCCGCCGCTCGTCCCGTTTCACTCATCCGCCGCTGAGCTCCGGAGTCACCTAGTGCAG”, with 10200 fluorescence intensity (a.u.). For the sequence “CAATATTTAAATGTCCATTCCACCCTTATGTTTTTCATTGCGGAGTCACCTAGTGCAG”, the binding signal is 9620 fluorescence intensity (a.u.). Next, “CACGTCGCCTCGTTTCTTGCCTCGCCGCTCGTCACTCGGCCGGAGTCACCTAGTGCAG”: 9810 fluorescence intensity (a.u.).

For “CTCTTCCGCTTCCTACTCCTACTCCGTCGCAATCCGCCGCCGGAGTCACCTAGTGCAG”, the binding signal was 9870 fluorescence intensity (a.u.).

As to “ACTCCTGCACACCGCAGTCAAAGTTCTTAAGTCTCAACTACGGAGTCACCTAGTGCAG”, the binding signal was 9260 fluorescence intensity (a.u.).

“TCGTTAATTTGCAACCATACCTTAGCTCCACACTCCACGACGGAGTCACCTAGTGCAG”: the binding signal is 8420 fluorescence intensity (a.u.).

Regarding “CGGGCAGCCAGCTGCATTATTTCATTATTTGTTTCTGCCTCGGAGTCACCTAGTGCAG”, the binding signal is 9200 fluorescence intensity (a.u.). In the case of “CACTTTTACCTGTTTTTGTTTTTTTTAACTTCTTCTACATCGGAGTCACCTAGTGCAG”, the binding signal is 10600 fluorescence intensity (a.u.). With “GCATCCCGCCCACCCACCGCGCGCCACCGCCTCCGCCGCCCGGAGTCACCTAGTGCAG”, the binding signal is 15400 fluorescence intensity (a.u.). “ATCTGAATTTATTTTCCACCTATACTATACCTTTTATCAACGGAGTCACCTAGTGCAG”: the binding signal was 8500 fluorescence intensity (a.u.). With “TGTTTGCAACGTTTGACCACTCGTCTTATTTAATTTTTTTCGGAGTCACCTAGTGCAG”, the binding signal is 8530 fluorescence intensity (a.u.).

In the case of “TGTAACCAATATTTGACCATTCGTCTTATTCAAATTTTTTCGGAGTCACCTAGTGCAG”, the binding signal was 11500 fluorescence intensity (a.u.). Next, “GGTTAAAGACATGCTAAAAAGTCAACGGTGTCAAATATTTCGGAGTCACCTAGTGCAG”: 11700 fluorescence intensity (a.u.); “CCACCGTCCGTCTCCATCCGACGCCTCCCGAACCGCAGCCCGGAGTCACCTAGTGCAG”: 8180 fluorescence intensity (a.u.). With “CTTTATCCGTGTTCTTCTCTGTAGAAGGTCAATGCAGCATCGGAGTCACCTAGTGCAG”, the binding signal was 8960 fluorescence intensity (a.u.). Then “ATCCACCGCCCCATTCCTGCTCTCTTCATCTTCACCTTCACGGAGTCACCTAGTGCAG”, with 11500 fluorescence intensity (a.u.).
